Test results: article PMC8638142
Results are given in words; binding and its absence hold for the method and conditions named. In cells and extracts the contact can be indirect. Some binding calls cover weakened binding; strength is not graded here. For some assays here: Sequences can lack the tags named with a protein.

By UniProt entry, the sequences of proteins in these tests, tags left out.
UniProt P35222: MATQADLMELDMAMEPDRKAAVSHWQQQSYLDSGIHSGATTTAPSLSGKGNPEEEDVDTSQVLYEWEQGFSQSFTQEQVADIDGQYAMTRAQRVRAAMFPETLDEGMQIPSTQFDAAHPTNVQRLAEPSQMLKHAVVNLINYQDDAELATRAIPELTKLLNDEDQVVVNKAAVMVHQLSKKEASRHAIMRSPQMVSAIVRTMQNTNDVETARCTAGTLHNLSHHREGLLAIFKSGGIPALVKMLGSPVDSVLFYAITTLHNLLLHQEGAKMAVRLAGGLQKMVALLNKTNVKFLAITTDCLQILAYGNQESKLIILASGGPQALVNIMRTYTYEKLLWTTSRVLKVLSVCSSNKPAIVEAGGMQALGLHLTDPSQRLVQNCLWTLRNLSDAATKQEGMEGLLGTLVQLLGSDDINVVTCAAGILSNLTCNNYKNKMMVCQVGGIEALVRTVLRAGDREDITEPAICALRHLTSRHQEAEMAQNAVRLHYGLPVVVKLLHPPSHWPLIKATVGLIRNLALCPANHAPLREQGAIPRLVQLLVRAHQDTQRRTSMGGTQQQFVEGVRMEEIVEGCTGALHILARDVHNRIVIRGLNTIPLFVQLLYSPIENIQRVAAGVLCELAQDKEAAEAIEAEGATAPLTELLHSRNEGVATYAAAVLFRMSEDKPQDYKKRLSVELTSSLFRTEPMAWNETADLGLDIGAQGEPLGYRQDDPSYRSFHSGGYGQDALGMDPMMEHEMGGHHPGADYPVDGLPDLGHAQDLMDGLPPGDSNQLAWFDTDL

How the values were obtained:
[1] = target: T1, PKMYT1 (the protein kinase, membrane-associated tyrosine/threonine 1), endogenous (human (endogenous in A549)) (UniProt Q99640); assay: co-IP; endogenous proteins in A549 cells; IP lysis buffer (1 mM NaF, 50 mM Tris-HCl pH 8.0, 120 mM NaCl, 0.5% NP40, 1 mM EDTA); detection by immunoblot
T1 sequence: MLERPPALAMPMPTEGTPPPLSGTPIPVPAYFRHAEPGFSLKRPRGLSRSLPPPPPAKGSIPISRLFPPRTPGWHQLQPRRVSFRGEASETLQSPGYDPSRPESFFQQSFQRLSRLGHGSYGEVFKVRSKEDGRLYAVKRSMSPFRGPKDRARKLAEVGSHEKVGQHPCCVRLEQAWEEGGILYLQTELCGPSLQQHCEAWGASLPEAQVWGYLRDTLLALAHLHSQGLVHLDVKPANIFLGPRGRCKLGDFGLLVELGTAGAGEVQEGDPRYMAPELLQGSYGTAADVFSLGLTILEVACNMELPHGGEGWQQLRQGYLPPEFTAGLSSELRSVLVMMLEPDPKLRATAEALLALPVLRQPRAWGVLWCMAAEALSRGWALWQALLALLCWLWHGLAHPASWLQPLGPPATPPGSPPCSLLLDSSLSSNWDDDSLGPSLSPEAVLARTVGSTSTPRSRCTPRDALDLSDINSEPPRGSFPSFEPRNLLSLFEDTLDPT

[2] = target: T2, PKMYT1 (exogenous, Myc-tagged or HA-tagged) (UniProt Q99640); assay: co-IP; indicated constructs transfected into HEK-293T cells; lysates in IP lysis buffer (1 mM NaF, 50 mM Tris-HCl pH 8.0, 120 mM NaCl, 0.5% NP40, 1 mM EDTA) immunoprecipitated with indicated primary antibodies; detection by immunoblot
T2 sequence: T1 sequence

Substance | binding [1] | binding [2]
β-catenin (endogenous) (from UniProt P35222 1-781) | binds | 
β-catenin-Flag (exogenous) (from UniProt P35222 1-781) |  | binds
